Measurements published in patent US7524930B2, “Tumor antigen” (Green Peptide Co., Ltd, priority 2003, dated 2009).
Not every detail of the peptide structures is certain; ends, links or a residue may be inferred. Some entries repeat one wording, which the source may state once for all of them. Peptide text beside a SMILES is read from it.

Tests used:
HLA-A0201 molecule = target: T1, HLA-A0201 molecule (Homo sapiens, UniProt P04439, D140Y/D185E/D98H/E176V/E277Q/G131W/G231S/I119V/I121R/I166T/I218V/L300P/L318F/N151K/N90K/P208A/P217A/Q86G/Q94H/R138H/R169H/T345S); assay: Binding activity of peptide to HLA-A0201 molecule on T2 cells (FACScan, MFI); settings: peptide 10 μM, positive and negative controls 898 and 490
T1 construct: endogenous in cells; host or cells: T2 cells (TAP-deficient mutant line)

[1] = system: peripheral blood mononuclear cells derived from a cancer patient; assay: CTL induction by peptide from autologous PBMC of cancer patient, IFN-γ production on recognition of target cells (Example 5); type: cell-based, human; settings: for Recognition of tumor cells by PBMC stimulated in vitro with peptide (IFN-γ production): SW620, CA9-22 and Panc-1 HLA-A2+ tumor cells, result in words; for IFN-γ production from peripheral blood mononuclear cells in recognition of target cells: PBMC stimulated with 10 μM peptide
Source text: Among the peptides that were able to enhance IFN-γ production from the OK-CTLp or OK-CTL clone in Example 4, those from P1 to P19 were examined for their ability to induce CTL from peripheral blood mononuclear cells derived from a cancer patient. The method for inducing CTL by a peptide was according to the well-known method (J. Exp. Med., 187:277-288, 1998; Cancer Res., 59:4056-4063, 1999.) Specifically, autologous peripheral blood mononuclear cells (PBMC) derived from a cancer patient, from whom OK-CTLp was obtained, were incubated together with the peptide (10 μM.) The cells were re-stimulated at day 10 and 14 after the start of culturing, using autologous PBMCs as an antigen presenting cell (APC) which were pulsed with 10 μM of the same peptide for 2 h and exposed to irradiation (30 gray.) At day 21 after the start of culturing, the cells were collected to test for surface phenotype. In addition, the cells were examined for the recognition of various target cells, using IFN-γ production measured by ELISA when they were cultured together with the target cells as an indicator. As a target cells, SW620 cell, CA9-22 cell, and Panc-1 cell, which are the HLA-A2^+ tumor cells, were used.

[2] = system: peripheral blood mononuclear cells derived from a cancer patient; assay: as above; type: cell-based, human; settings: PBMC stimulated with 10 μM peptide

Row | Compound | MFI (relative mean fluorescence intensity of the HLA-A2 molecule; binding affinity to HLA-A0201) (HLA-A0201 molecule) | Recognition of tumor cells by PBMC stimulated in vitro with peptide (IFN-γ production) [1] | IFN-γ production from peripheral blood mononuclear cells in recognition of target cells ([1]; target CA9-22 (HLA-A0207/24)) [pg/mL] | IFN-γ production from peripheral blood mononuclear cells in recognition of target cells ([1]; target Panc-1 (HLA-A0201/11)) [pg/mL] | IFN-γ production from peripheral blood mononuclear cells in recognition of target cells ([1]; target SW620 (HLA-A0201/24)) [pg/mL] | IFN-γ production from peripheral blood mononuclear cells in recognition of target cells ([2]; target COLO320 (HLA-A24/24)) [pg/mL] | IFN-γ production from peripheral blood mononuclear cells in recognition of target cells ([2]; target QG56 (HLA-A26/26)) [pg/mL] | IFN-γ production from peripheral blood mononuclear cells in recognition of target cells ([2]; target RERF-LC-MS (HLA-A11/11)) [pg/mL]
1 | CC(C)C[C@H](NC(=O)[C@H](CCC(N)=O)NC(=O)[C@@H](N)CCC(N)=O)C(=O)N[C@@H](CS)C(=O)N[C@H](C(=O)N[C@@H](Cc1ccc(O)cc1)C(=O)N[C@@H](Cc1c[nH]c2ccccc12)C(=O)N[C@H](C(=O)N[C@H](C(=O)O)C(C)C)[C@@H](C)O)C(C)C [Peptide P19] (H-QQLCVYWTV-OH) | 775 | recognized not only the tumor cells expressing HLA-A2; but also the tumor cells expressing other types of HLA | 48 | 105 | 55 | 66 | 0 | 30
2 | CC[C@H](C)[C@H](NC(=O)[C@@H](NC(=O)[C@@H](N)CCCNC(=N)N)[C@@H](C)CC)C(=O)N[C@@H](Cc1ccc(O)cc1)C(=O)N[C@@H](CC(=O)O)C(=O)N[C@@H](CCCNC(=N)N)C(=O)N[C@@H](CCCCN)C(=O)N[C@@H](Cc1ccccc1)C(=O)N[C@@H](CC(C)C)C(=O)O [Peptide P14] (H-RIIYDRKFL-OH) | 591 | produced IFN-γ in a significant amount | 184 | 265 | 112 | 0 | 0 | 0
3 | CC(C)C[C@H](NC(=O)CN)C(=O)N[C@@H](CC(C)C)C(=O)N[C@@H](Cc1ccccc1)C(=O)N[C@@H](CC(C)C)C(=O)N[C@@H](Cc1c[nH]cn1)C(=O)N[C@H](C(=O)N[C@@H](CCCNC(=N)N)C(=O)N[C@H](C(=O)O)[C@@H](C)O)[C@@H](C)O [Peptide P17] (H-GLLFLHTRT-OH) | 660 | produced IFN-γ in a significant amount | >1000 | 691 | >1000 | 0 | 0 | 0
4 | CC[C@H](C)[C@H](N)C(=O)N[C@H](C(=O)N[C@@H](Cc1ccc(O)cc1)C(=O)N[C@@H](CC(=O)O)C(=O)N[C@@H](CCCNC(=N)N)C(=O)N[C@@H](CCCCN)C(=O)N[C@@H](Cc1ccccc1)C(=O)N[C@@H](CC(C)C)C(=O)N[C@@H](CCSC)C(=O)O)[C@@H](C)CC [Peptide P15] (H-IIYDRKFLM-OH) | 789 | produced IFN-γ in a significant amount | 219 | 502 | 199 | 0 | 0 | 32
